Measurements published in patent publication US20020102614A1.
No constants are given. Whether binding was seen depends on the method and setting. In cells and extracts the contact can be indirect. Some binding calls cover weakened binding; strength is not graded here. Sequences can lack the tags named with a protein.

Protein sequences, listed by entry. Tags and fused reporters are not part of them.
UniProt Q16637: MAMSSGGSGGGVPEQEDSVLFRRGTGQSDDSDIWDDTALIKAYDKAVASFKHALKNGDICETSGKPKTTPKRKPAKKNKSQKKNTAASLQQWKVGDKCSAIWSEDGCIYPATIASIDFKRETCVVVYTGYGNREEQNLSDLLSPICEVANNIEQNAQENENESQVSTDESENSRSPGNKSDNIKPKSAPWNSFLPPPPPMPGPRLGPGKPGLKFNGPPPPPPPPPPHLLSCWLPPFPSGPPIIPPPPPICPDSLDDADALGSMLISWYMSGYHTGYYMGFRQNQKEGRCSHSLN

What was measured:
[1] = biological target: SMN (survival of motor neuron) polypeptide, full-length (human) (UniProt Q16637); assay: co-precipitation with ZPR1 from cell lysates; Flag M2 IP from transfected COS7 cells, SMN immunoblot
[2] = biological target: SMN (survival of motor neuron) polypeptide, full-length (human) (UniProt Q16637); assay: co-immunoprecipitation from transfected COS7 cells (Flag M2 IP, SMN immunoblot)

B1: Flag-ZPR1 (full-length Flag-tagged ZPR1 expressed in transfected COS7 cells) (protein, mouse, UniProt Q62384 1-459, looked up, not shown: small tags and cut ends)
chain: MSASGAVQPGHPGAAVGPSPAAAASPATGPLFRPLSAEDEEQQPTEIESLCMNCYRNGTTRLLLTKIPFFREIIVSSFSCEHCGWNNTEIQSAGRIQDQGVRYTLTVRSQEDMNREVVKTDSATTRIPELDFEIPAFSQKGALTTVEGLISRAISGLEQDQPTRRAVEGAIAERIDEFIGKLKDLKQMASPFTLVIDDPSGNSFVENPHAPQKDNALVITYYDRTPQQAEMLGLQAEAPEEKAEEEDLRNEVLQFNTNCPECNAPAQTNMKLVQIPHFKEVIIMATNCENCGHRTNEVKSGGAVEPLGTRITLHITDPSDMTRDLLKSETCSVEIPELEFELGMAVLGGKFTTLEGLLKDIRELVTKNPFTLGDSSNPDQSEKLQEFSQKLGQIIEGKMKAHFIMNDPAGNSYLQNVYAPEDDPEMKVERYKRTFDQNEELGLNDMKTEGYEAGLAPQR
What does the source list for B1?
binding [1]: binds; binding [2]: binds
